The target of the assay is T1, Membrane-bound O-acyltransferase (MBOAT) 7 from Homo sapiens (human), Q96N66.
T1 chain: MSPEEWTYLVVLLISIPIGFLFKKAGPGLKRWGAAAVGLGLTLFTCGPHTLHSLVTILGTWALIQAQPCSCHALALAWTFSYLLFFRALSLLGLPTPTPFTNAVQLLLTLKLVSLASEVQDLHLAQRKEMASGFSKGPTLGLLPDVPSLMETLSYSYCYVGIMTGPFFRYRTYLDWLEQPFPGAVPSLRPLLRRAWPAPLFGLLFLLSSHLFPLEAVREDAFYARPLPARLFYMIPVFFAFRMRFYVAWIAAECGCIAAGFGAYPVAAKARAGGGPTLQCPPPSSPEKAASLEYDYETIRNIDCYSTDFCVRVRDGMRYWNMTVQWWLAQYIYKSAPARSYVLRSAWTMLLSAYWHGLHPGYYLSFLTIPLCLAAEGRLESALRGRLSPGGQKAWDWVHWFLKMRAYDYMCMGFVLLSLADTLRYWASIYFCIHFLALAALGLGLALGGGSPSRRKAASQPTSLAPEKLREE
Put plainly: cryo-EM structure; single-particle cryo-EM of purified MBOAT7 reconstituted in amphipol PMAL-C8, 5–6 mg/ml, apo state; both purified. Particulars: remark: other sources report otherwise.

No constants are given. Whether binding was seen depends on the method and setting.

B1: Membrane-bound O-acyltransferase (MBOAT) 7 from Homo sapiens, Q96N66 1-472 (enzyme)
chain: T1 chain
Turning to B1, the binding result is on record as “no binding (tested: 5–6 mg/ml)”.

The values above are taken from article PMC10267149, “The structure of phosphatidylinositol remodeling MBOAT7 reveals its catalytic mechanism and enables inhibitor identification” (Nature Communications, 2023).
